Percent effect of library compounds

Amino acid sequences for entries named in this document (tags omitted). Residues count along the entry.
UniProt A4I591, 1-473: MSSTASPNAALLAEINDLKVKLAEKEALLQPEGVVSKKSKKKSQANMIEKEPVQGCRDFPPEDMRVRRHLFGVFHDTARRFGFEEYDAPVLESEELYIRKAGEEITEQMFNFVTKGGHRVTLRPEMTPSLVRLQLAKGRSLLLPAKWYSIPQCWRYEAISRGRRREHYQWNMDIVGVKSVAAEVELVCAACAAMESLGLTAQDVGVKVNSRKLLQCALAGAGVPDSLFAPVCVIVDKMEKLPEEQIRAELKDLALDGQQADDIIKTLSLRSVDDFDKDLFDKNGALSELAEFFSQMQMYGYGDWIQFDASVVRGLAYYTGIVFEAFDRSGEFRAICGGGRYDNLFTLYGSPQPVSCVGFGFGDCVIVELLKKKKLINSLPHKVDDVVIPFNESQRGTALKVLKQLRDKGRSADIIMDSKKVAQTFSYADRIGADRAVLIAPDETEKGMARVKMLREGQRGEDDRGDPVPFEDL

Data taken from ChEMBL document CHEMBL3988442, “University of Dundee, Small-Polar-MMV Screening Library” (2021).

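Enzyme assay of histidyl-tRNA synthetase; the read-out is not stated. Target: Histidine-tRNA ligase, Leishmania infantum (UniProt A4I591). Tested at 30 µM. Direction is inferred from retests: higher values go with stronger inhibition. The assay is labelled LdHisRS but filed under L. infantum. Size under these conditions: about 69,000 compounds, about 410 of them at 50% or above in at least one test.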

Results are given as percent effect. The controls that fix the scale are not given in the record; negative values are as filed. This is an unselected part of the compounds tested.

With COc1cc(N2C[C@H]3CN(CCN4CCCC4)C(=O)[C@H]3C2)ncn1 the screen gave -5.172%. Result for CN(C)CCN1CCC2(CC1)CN(c1cccnc1)C(=O)CO2 was 9.023%. Result for Cc1cccc(C(=O)N2CCC3(CC2)CC(c2ccccc2)C(=O)N3)c1 (stereo not drawn) was 22.86%. CC(NCCn1cccn1)c1ccc(F)cc1F (stereo not drawn) gave 5.714%. For CN1C[C@H](O)C[C@H]1c1nc(-c2ccc3c(c2)OCO3)no1 the result was 13.51%. For CCN(C(=O)Cc1ccc(NCc2ncc[nH]2)cc1)c1ccccc1 the result was 21.13%.

For COCCN1CCC(NCc2cc(F)ccc2F)C1 (stereo not drawn) the result was 23.08%. O=C1NCCCC12CCN(c1nc3c(c(C(F)(F)F)n1)CCCC3)C2 (stereo not drawn) gave 13.7%. Result for CNC(=O)C1CCCN1C(=O)NCCCc1cccc(F)c1 (stereo not drawn) was 9.375%. CN(CCOc1cccc(Cl)c1)Cc1nnc(C(C)(C)C)o1 read 8.772%. Result for O=C(CC1CC1)NCc1cn2c(n1)CN(C(=O)C1CCOCC1)CC2 was 14.71%. For CCN(CC)S(=O)(=O)c1ccc(CCC(=O)NCc2cc(C)on2)cc1 the result was 19.18%.

With Cn1nnc2cc(C(=O)NS(=O)(=O)c3ccc(F)cc3)ccc21 the screen gave 12.28%. Cc1ccc(C(=O)N2CCC3(CC2)CC(c2cnn(C)c2)CO3)cn1 (stereo not drawn) read 22%. For O=c1cc(-c2cc(O)cc(CCC3CCCCN3)c2)cc[nH]1 (stereo not drawn) the result was 1.075%. O=C(COc1ccccc1)NCCNC(=O)c1scnc1Cl gave 15.52%. O=C(C1=COCCO1)N1CC(Oc2nc3c(Cl)cccc3s2)C1 gave 17.2%. Result for N#CCCN(CC1CCCO1)C(=O)c1ccc2nonc2c1 (stereo not drawn) was 1.98%.

CCc1nc(C2CCCN(C(=O)NCCOC)C2)no1 (stereo not drawn) gave 11.5%. COC(=O)c1ccc(C)c(N2CCNC2=O)c1 read 10.42%. NCC(=O)N1CCCC(O)(CN2CCN(c3ccccc3)CC2)CC1 (stereo not drawn) gave 8.451%. CC(C(=O)NCc1ccnc(N(C)C)c1)n1cncn1 (stereo not drawn) gave 21.15%. With O=C(Nc1cccc(N2CCCC2)c1)N[C@H](CCO)c1ccccc1 the screen gave 3.333%. With COc1ccccc1OCCNS(=O)(=O)N1CCOCC1 the screen gave 5.319%.

O=c1[nH]ncc(NCCOc2ccc3c(c2)CCC3)c1Cl read 7.292%. COc1ccc(CN2CCCC3(CCN(c4ccsc4)C3=O)C2)cc1 (stereo not drawn) gave 12.41%. O=C(CO)N1CCN(C(=O)c2coc3ccccc23)CC1 gave 9.167%. For CCOCc1nc2c(c(NC(CC)c3ccncc3)n1)CCNCC2 (stereo not drawn) the result was 13.43%. CC(C)n1cnnc1CN(C)C1CCCNC1 (stereo not drawn) gave 19.17%. Result for CN(CCS(=O)(=O)c1cc(Cl)ccc1Cl)CC(=O)Nc1cccc(F)c1 was 19.48%.

O=C(Nc1ccccc1)N1C[C@H]2C[C@H](C(=O)N3CCCC3)[C@@H](C1)O2 gave -5.769%. CSc1ccc(S(=O)(=O)N2CCCCC2CCNC(C)=O)cc1 (stereo not drawn) gave 13.33%. For Cc1nsc(NC(=O)NC2CCCOC2)n1 (stereo not drawn) the result was 0.7937%. CCSc1cc(C(=O)NCCc2nnc(-c3ccco3)[nH]2)ccn1 read 16.96%. COc1ccc(C(=O)NS(C)(=O)=O)cc1-c1ccccc1 read 8.621%. For CC(=O)NC1CCN(c2nc(N(C)C)nc3c2CCN(C(C)=O)C3)CC1 the result was 10.26%.

Repeated from the top, 3 entries:

{"structure": "COc1cc(N2C[C@H]3CN(CCN4CCCC4)C(=O)[C@H]3C2)ncn1", "effect": -5.172}
{"structure": "CN(C)CCN1CCC2(CC1)CN(c1cccnc1)C(=O)CO2", "effect": 9.023}
{"structure": "Cc1cccc(C(=O)N2CCC3(CC2)CC(c2ccccc2)C(=O)N3)c1", "stereo": "stereo not drawn", "effect": 22.86}